# PubChem BioAssay AID1224830 – NIAID | 2016
# Screen: 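Genes whose knock-down alters the TNF-alpha reporter response to LPS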 (primary screen)
# System: human THP-1 monocytic leukaemia cells, TNF dual-luciferase reporter clone, PMA-differentiated to macrophage-like cells
# Knock-down reagent: siRNA pool against human genes, 50 nM
# Duration: LPS for 4 h, given about 3 days after siRNA transfection
# Treatment: bacterial LPS (TLR4 ligand), 10 ng/ml
# Measured: 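Ratio of firefly to renilla light, scaled to the plate median and expressed as a robust z-score per replicate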
# Direction: TNF reporter robust z-score: higher = stronger TNF reporter response to LPS
# Rule for the call: 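Each well counts as active if its z-score is over 2.8 or under -1.5; controls are left without a call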
# The whole screen tested about 18,000 reagents; shown is an unselected part. Over the whole deposit, about 2,900 (16%) are marked active. 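Calls are made per well; low scores hint the gene aids the LPS response, high scores that it dampens it.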 A number with no mark means an inactive call. Repeated entries: four replicate wells of each siRNA pool.
gene,TNF reporter robust z-score
TNNC1,1.51
TNNC1,2.58
TNNC1,-1.51 (active)
TNNC1,0.82
SLC16A3,0.25
SLC16A3,1.53
SLC16A3,0.36
SLC16A3,0.34
AUNIP,-1.35
AUNIP,-1.28
AUNIP,-1.16
AUNIP,-1.01
KCNN2,1.47
KCNN2,1.75
KCNN2,-0.22
KCNN2,0.67
DEPDC5,-0.72
DEPDC5,-0.7
DEPDC5,-1.64 (active)
DEPDC5,-0.38
MYBL2,-1.73 (active)
MYBL2,-1.98 (active)
MYBL2,-1.79 (active)
MYBL2,-1.68 (active)

Reprinted from the entries so far for reference:
gene,TNF reporter robust z-score
AUNIP,-1.28
AUNIP,-1.16
AUNIP,-1.01
KCNN2,1.47
KCNN2,1.75
KCNN2,-0.22

More results:
gene,TNF reporter robust z-score
TFAP4,-0.7
TFAP4,0.71
TFAP4,-1.03
TFAP4,2.02
ITPKC,-1.14
ITPKC,-0.05
ITPKC,0.05
ITPKC,0.27
RBFOX2,-0.45
RBFOX2,-0.38
RBFOX2,-0.54
RBFOX2,0.25
PRNT,-1.55 (active)
PRNT,-0.1
PRNT,-0.7
PRNT,-1.04
IDE,0.32
IDE,0.39
IDE,-0.57
IDE,-0.06
GDPD2,0.83
GDPD2,0.29
GDPD2,-0.79
GDPD2,-0.24
